Results deposited as PubChem BioAssay AID1259308 (NCATS, 2017).
Test: 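Knock-downs that increase output of a recombinant reporter protein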 (primary screen). System: human HEK293 embryonic kidney cells stably expressing firefly luciferase (HEK-CMV-Luc2-Hygro). Reagent: single siRNA against human genes, 0.8 pmol siRNA per well. Duration: 72 h. Measured: 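Reporter luminescence and viable-cell signal on separate replicate plates, given as percent of non-targeting control and median/MAD z-scores, plus per-cell luciferase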. Scale: total luciferase, z-score and total luciferase, % of control: higher = more reporter protein produced; luciferase per cell, z-score: higher = more reporter output per viable cell. Call rule: 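Active when the median/MAD z-score for overall luciferase is greater than 3; a gene was taken forward for validation with new siRNAs if at least two of its three siRNAs passed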. Meaning of the calls: active = raised luciferase; inactive = no rise.
The whole screen tested about 59,000 reagents; this is an unselected part. Of all reagents, about 1,510 (2.6%) were called active. 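Calls use total luciferase alone and ignore viability, so some active siRNAs may act by altering cell number.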 Reagents against one gene are numbered here. Further read-outs or replicates are left out here. Reagent sequences are not shown.

no.	target gene	reagent	total luciferase, z-score	total luciferase, % of control	luciferase per cell, z-score	outcome
1	PARP8 (GeneID 79668)	1	-0.115	79.6	-0.387	inactive
2	PARP8 (GeneID 79668)	2	0.213	86.1	0.346	inactive
3	PARP8 (GeneID 79668)	3	1.7	116	1.08	inactive
4	HDIP1 (GeneID 388272)	1	0.806	97.9	0.736	inactive
5	HDIP1 (GeneID 388272)	2	-0.961	62.8	-0.541	inactive
6	HDIP1 (GeneID 388272)	3	0.0152	82.2	0.162	inactive
7	KRT35 (GeneID 3886)	1	0.396	89.8	-0.309	inactive
8	KRT35 (GeneID 3886)	2	-1.43	53.4	-1.44	inactive
9	KRT35 (GeneID 3886)	3	-3.06	21	-2.87	inactive
10	EPC2 (GeneID 26122)	1	0.00167	81.9	-0.129	inactive
11	EPC2 (GeneID 26122)	2	0.444	90.7	0.235	inactive
12	EPC2 (GeneID 26122)	3	0.325	88.3	0.803	inactive
13	GALNT5 (GeneID 11227)	1	1.26	107	1.33	inactive
14	GALNT5 (GeneID 11227)	2	-1.31	55.8	1.86	inactive
15	GALNT5 (GeneID 11227)	3	0.765	97.1	0.882	inactive
16	SACK1H (GeneID 286077)	1	-1.91	43.8	-2.31	inactive
17	SACK1H (GeneID 286077)	2	-0.513	71.7	-0.406	inactive
18	SACK1H (GeneID 286077)	3	-0.38	74.3	-0.624	inactive
19	SLC4A2 (GeneID 6522)	1	0.777	97.3	0.643	inactive
20	SLC4A2 (GeneID 6522)	2	-2.07	40.7	-1.18	inactive
21	SLC4A2 (GeneID 6522)	3	-1.3	56.1	-1.34	inactive
22	KYNU (GeneID 8942)	1	-0.55	71	-0.908	inactive
23	KYNU (GeneID 8942)	2	0.328	88.4	-0.33	inactive
24	KYNU (GeneID 8942)	3	0.889	99.6	-0.125	inactive
25	RPS27AP5 (GeneID 100271374)	1	-1.54	51.3	-1.33	inactive
26	RPS27AP5 (GeneID 100271374)	2	-1.63	49.4	-1.52	inactive
27	RPS27AP5 (GeneID 100271374)	3	-3.23	17.7	-2.82	inactive
28	NALF2 (GeneID 27112)	1	5.48	191	3.5	active
29	NALF2 (GeneID 27112)	2	-0.437	73.2	-0.278	inactive
30	NALF2 (GeneID 27112)	3	0.301	87.9	0.269	inactive
31	ACSM6 (GeneID 142827)	1	0.958	101	1.27	inactive
32	ACSM6 (GeneID 142827)	2	0.71	96	0.273	inactive
33	ACSM6 (GeneID 142827)	3	-0.0785	80.3	0.32	inactive
34	PLIN4 (GeneID 729359)	1	0.257	87	0.428	inactive
35	PLIN4 (GeneID 729359)	2	1.24	107	1.62	inactive
36	PLIN4 (GeneID 729359)	3	-0.161	78.7	0.159	inactive
37	UBN2 (GeneID 254048)	1	0.337	88.6	0.184	inactive
38	UBN2 (GeneID 254048)	2	0.416	90.2	0.334	inactive
39	UBN2 (GeneID 254048)	3	2.53	132	2.12	inactive
40	TAF3 (GeneID 83860)	1	1.33	108	0.602	inactive
41	TAF3 (GeneID 83860)	2	3.46	151	2.17	active
42	TAF3 (GeneID 83860)	3	0.576	93.3	2.6	inactive
43	S100A9 (GeneID 6280)	1	-0.312	75.7	0.0673	inactive
44	S100A9 (GeneID 6280)	2	-0.474	72.5	-0.865	inactive
45	S100A9 (GeneID 6280)	3	0.443	90.7	1.17	inactive
46	TRIM40 (GeneID 135644)	1	-0.984	62.3	-0.995	inactive
47	TRIM40 (GeneID 135644)	2	0.859	99	0.56	inactive
48	TRIM40 (GeneID 135644)	3	-0.855	64.9	-0.881	inactive
49	ACOT8 (GeneID 10005)	1	1.58	113	2.64	inactive
50	ACOT8 (GeneID 10005)	2	-0.0635	80.6	-0.313	inactive
51	ACOT8 (GeneID 10005)	3	-0.00712	81.7	0.591	inactive
52	MX1 (GeneID 4599)	1	-0.158	78.7	-0.533	inactive
53	MX1 (GeneID 4599)	2	0.313	88.1	1.1	inactive
54	MX1 (GeneID 4599)	3	4.17	165	3.78	active
55	URB2 (GeneID 9816)	1	-0.0138	81.6	-0.222	inactive
56	URB2 (GeneID 9816)	2	-0.115	79.6	-0.288	inactive
57	URB2 (GeneID 9816)	3	1.99	121	1.5	inactive

Called active, of those listed so far:
target gene	reagent	total luciferase, z-score	total luciferase, % of control	luciferase per cell, z-score	outcome
NALF2 (GeneID 27112)	1	5.48	191	3.5	active
TAF3 (GeneID 83860)	2	3.46	151	2.17	active
MX1 (GeneID 4599)	3	4.17	165	3.78	active
